Publication PMC5815017

Target: MipZ (Caulobacter crescentus)
Assay: two-hybrid; bacterial two-hybrid assay in E. coli with T18-ParB

B1: Caulobacter crescentus ParB fused to the T18 fragment of Bordetella pertussis adenylate cyclase (protein, UniProt B8GW30 1-304)
chain: MESVVVGEPGMSEGRRGLGRGLSALLGEVDAAPAQAPGEQLGGSREAPIEILQRNPDQPRRTFREEDLEDLSNSIREKGVLQPILVRPSPDTAGEYQIVAGERRWRAAQRAGLKTVPIMVRELDDLAVLEIGIIENVQRADLNVLEEALSYKVLMEKFERTQENIAQTIGKSRSHVANTMRLLALPDEVQSYLVSGELTAGHARAIAAAADPVALAKQIIEGGLSVRETEALARKAPNLSAGKSKGGRPPRVKDTDTQALESDLSSVLGLDVSIDHRGSTGTLTITYATLEQLDDLCNRLTRGI
  binding: binds

No constants are given. Whether binding was seen depends on the method and setting. A result given as binding can be weak or reduced; the word gives no strength. Sequences can lack the tags named with a protein.
